# Test results from the supplement of paper PMC9135407.
# Values joined by “and” are separate entries in the source; they are usually repeats but may differ in a detail not shown here. Identical values can stand only once. Counter-ions that a name gives are not always drawn. ± gives the standard deviation of the averaged measurements. Some of the results follow. Part of the spread comes from offsets between plates or batches.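 Assay uses culture-activated primary human stellate myofibroblasts; lipid droplet recovery indicates inactivation. Measured: proportion of Hoechst-counted cells over a plate-specific Bodipy cutoff, duplicate wells, DMSO and nortriptyline as per-plate negative and positive controls. A hit scores, control-normalized, above the plate's top-tenth-percentile nortriptyline wells or ranks among its three best wells. Final well concentrations not reported.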
# System: primary human hepatic stellate cells (donor 1)
# Test: percent Bodipy-positive cells; higher = more lipid droplet accumulation
# Conditions: 48 h
# [1] = library stock concentration: 3.33 mM
# [2] = library stock concentration: 10 mM
# [3] = library stock concentration: 1 mM
smiles,measurement,setting,value
Cc1cccc(-c2[nH]ncc2-c2ccc3ncccc3n2)n1,percent Bodipy-positive cells,[1],43.1 ± 6.1%
same,percent Bodipy-positive cells,[2],51.6% and 69%
O=C(O)CCC/C=C\C[C@H]1[C@@H](/C=C/[C@@H](O)CCc2ccccc2)[C@H](O)C[C@@H]1O [8-iso-17-phenyl trinor Prostaglandin F2.alpha.],percent Bodipy-positive cells,[3],14.6 ± 13%
Cn1cc(C2=C(c3ccc(Cl)cc3Cl)C(=O)NC2=O)c2ccccc21,percent Bodipy-positive cells,[2],99.82 ± 0.26%
CCCOc1ccc(Br)cc1-c1cc(-c2ccc(Cl)cc2)[nH]c1-c1ccncc1,percent Bodipy-positive cells,[2],9.15 ± 1.2%
NS(=O)(=O)c1ccc(NC(=O)Nc2ccc(F)cc2)cc1,percent Bodipy-positive cells,[1],4.82 ± 0.48%
same,percent Bodipy-positive cells,[2],13.8 ± 2%
CCCCCCCCNC(C)C(O)c1ccc(SC(C)C)cc1 (stereo not drawn) [Suloctidil],percent Bodipy-positive cells,,97.1 ± 1.2%
same,percent Bodipy-positive cells,library stock concentration: 5.9 mM,96.86 ± 0.16%
same,percent Bodipy-positive cells,[2],52.9 ± 26%
C[C@H]1O[C@@H](O[C@H]2[C@@H](O)C[C@H](O[C@H]3[C@@H](O)C[C@H](O[C@H]4CC[C@@]5(C)[C@H](CC[C@@H]6[C@@H]5CC[C@]5(C)[C@@H](C7=CC(=O)OC7)CC[C@]65O)C4)O[C@@H]3C)O[C@@H]2C)C[C@H](O)[C@@H]1O [Digitoxin],percent Bodipy-positive cells,[2],52.8 ± 1.1%
CC(=O)CC(c1ccc([N+](=O)[O-])cc1)c1c(O)c2ccccc2oc1=O (stereo not drawn) [Acenocoumarol],percent Bodipy-positive cells,,26.4 ± 8.7%
O=C(O)c1cc([N+](=O)[O-])ccc1NCCCc1ccccc1 [5-Nitro-2-(3-phenylpropylamino)benzoic acid],percent Bodipy-positive cells,[2],42.51 ± 0.42%
S=c1[nH]cnc2nc[nH]c12 [Mercaptopurine (6-MP)],percent Bodipy-positive cells,[1],6.61 ± 0.62%
same,percent Bodipy-positive cells,[2],30.7 ± 19%
S=c1[nH]cnc2nc[nH]c12 [Mercaptopurine],percent Bodipy-positive cells,[2],12% and 28.8%
same,percent Bodipy-positive cells,library stock concentration: 13.1 mM,4.2 ± 2.1%
COc1cc2c(cc1OC)[C@@H]1C(=O)c3ccc4c(c3O[C@@H]1CO2)C=CC(C)(C)O4 [Deguelin(-)],percent Bodipy-positive cells,[2],30 ± 2.6%
CC(=O)O[C@]1(C(C)=O)CC[C@H]2[C@@H]3C=C(C)C4=CC(=O)CC[C@]4(C)[C@H]3CC[C@@]21C [Megestrol Acetate],percent Bodipy-positive cells,[1],18.9 ± 6.1%
same,percent Bodipy-positive cells,[2],20.8 ± 4.5%
CC(=O)O[C@]1(C(C)=O)CC[C@H]2[C@@H]3C=C(C)C4=CC(=O)CC[C@]4(C)[C@H]3CC[C@@]21C,percent Bodipy-positive cells,[2],18.8 ± 16%
CC(=O)O[C@]1(C(C)=O)CC[C@H]2[C@@H]3C=C(C)C4=CC(=O)CC[C@]4(C)[C@H]3CC[C@@]21C [Megestrol acetate],percent Bodipy-positive cells,,5.25 ± 2.8%
same,percent Bodipy-positive cells,library stock concentration: 5.2 mM,7.58% and 5.27%
same,percent Bodipy-positive cells,[2],11.8 ± 0.72%
C=C1[C@H](CO)[C@@H](O)C[C@@H]1n1cnc2c(=O)[nH]c(N)nc21 [Entecavir Hydrate],percent Bodipy-positive cells,[1],19.2 ± 13%
same,percent Bodipy-positive cells,[2],14.5 ± 1.9%
O=C1O/C(=C/Br)CC[C@H]1c1cccc2ccccc12 [(S)-Bromoenol lactone],percent Bodipy-positive cells,[3],29 ± 10%
NC[C@H]1O[C@H](O[C@H]2[C@H](O)[C@@H](O[C@H]3O[C@H](CO)[C@@H](O)[C@H](N)[C@H]3O)[C@H](N)C[C@@H]2N)[C@H](N)[C@@H](O)[C@@H]1O [Bekanamycin sulfate],percent Bodipy-positive cells,[2],26.4 ± 2.3%
